This assay addresses CrkI (human) (UniProt P46108). The assay is described as follows: co-IP; lysates of CrkI-expressing A549 cells; lysis buffer 0.5% NP-40, 10 mM Tris-HCl pH 7.4, 150 mM NaCl, 1 mM EDTA, 50 mM NaF, 1 mM Na3VO4; immunoprecipitation and immunoblotting; which protein was precipitated is not told.

Chains of the proteins cited; added tags and fusions are not shown. Lines headed by an entry give the natural chain unless they say otherwise; changes in a name come on top. A line that says so, or that is headed by a name, gives the form on record, which may keep a tag or linker.
CrkI (P46108, form named): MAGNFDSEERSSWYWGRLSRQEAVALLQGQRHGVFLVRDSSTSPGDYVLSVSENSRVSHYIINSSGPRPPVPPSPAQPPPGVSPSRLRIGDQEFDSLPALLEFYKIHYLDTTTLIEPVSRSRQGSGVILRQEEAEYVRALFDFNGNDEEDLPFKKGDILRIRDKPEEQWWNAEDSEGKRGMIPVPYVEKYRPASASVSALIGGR
UniProt P49023: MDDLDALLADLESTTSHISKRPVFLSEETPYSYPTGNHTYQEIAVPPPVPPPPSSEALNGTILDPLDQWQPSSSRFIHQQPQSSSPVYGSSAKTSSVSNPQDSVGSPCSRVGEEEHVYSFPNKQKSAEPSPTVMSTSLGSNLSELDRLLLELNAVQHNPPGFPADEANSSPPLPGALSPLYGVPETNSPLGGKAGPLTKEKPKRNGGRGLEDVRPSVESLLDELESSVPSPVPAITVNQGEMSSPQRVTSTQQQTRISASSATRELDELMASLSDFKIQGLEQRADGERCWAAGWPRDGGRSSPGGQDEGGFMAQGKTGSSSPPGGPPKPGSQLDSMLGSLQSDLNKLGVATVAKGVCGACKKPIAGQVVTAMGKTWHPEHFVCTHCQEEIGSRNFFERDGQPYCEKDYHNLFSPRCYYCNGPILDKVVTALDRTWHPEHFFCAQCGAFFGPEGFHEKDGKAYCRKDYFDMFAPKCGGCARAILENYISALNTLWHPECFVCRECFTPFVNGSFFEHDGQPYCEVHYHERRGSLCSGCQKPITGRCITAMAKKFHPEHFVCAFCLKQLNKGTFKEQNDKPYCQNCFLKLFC

Results are given in words; binding and its absence hold for the method and conditions named. In cells and extracts the contact can be indirect. Some entries that bind do so weakly or less than the wild type.

For paxillin (from UniProt P49023 1-591), the binding entry is “binds”.

Source of the values: publication PMC5053635.
